This test deals with T1, cyclin-dependent kinase inhibitor p21 (mouse (endogenous in JB6 P+)) (UniProt P39689).
T1 sequence: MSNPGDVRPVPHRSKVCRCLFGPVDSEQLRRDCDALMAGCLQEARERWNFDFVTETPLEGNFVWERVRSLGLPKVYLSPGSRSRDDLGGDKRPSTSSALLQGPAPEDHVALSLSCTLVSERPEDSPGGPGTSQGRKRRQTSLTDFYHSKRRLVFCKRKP
Description: co-IP; endogenous proteins; cell lysate at 1 mg/mL incubated with anti-p21 or anti-Keap1 antibody overnight at 4 °C, then Protein A/G PLUS-Agarose for 4 h; washed three times with NP-40 lysis buffer; immunoblot for Nrf2; cells with or without DADS for 4 h. In general terms: Immunoblotting shows a protein as a band on a membrane.

Results are given in words; binding and its absence hold for the method and conditions named. In cells and extracts the contact can be indirect. Some binding calls cover weakened binding; strength is not graded here.

B1: NF-E2-related factor 2 (Nrf2) (protein, UniProt Q60795 1-597)
chain: MMDLELPPPGLQSQQDMDLIDILWRQDIDLGVSREVFDFSQRQKDYELEKQKKLEKERQEQLQKEQEKAFFAQFQLDEETGEFLPIQPAQHIQTDTSGSASYSQVAHIPKQDALYFEDCMQLLAETFPFVDDHESLALDIPSHAESSVFTAPHQAQSLNSSLEAAMTDLSSIEQDMEQVWQELFSIPELQCLNTENKQLADTTAVPSPEATLTEMDSNYHFYSSISSLEKEVGNCGPHFLHGFEDSFSSILSTDDASQLTSLDSNPTLNTDFGDEFYSAFIAEPSDGGSMPSSAAISQSLSELLDGTIEGCDLSLCKAFNPKHAEGTMEFNDSDSGISLNTSPSRASPEHSVESSIYGDPPPGFSDSEMEELDSAPGSVKQNGPKAQPAHSPGDTVQPLSPAQGHSAPMRESQCENTTKKEVPVSPGHQKAPFTKDKHSSRLEAHLTRDELRAKALHIPFPVEKIINLPVDDFNEMMSKEQFNEAQLALIRDIRRRGKNKVAAQNCRKRKLENIVELEQDLGHLKDEREKLLREKGENDRNLHLLKRRLSTLYLEVFSMLRDEDGKPYSPSEYSLQQTRDGNVFLVPKSKKPDTKKN
For the molecule B1, the binding result was “binds”.
